Test results: PubChem BioAssay AID330 (DTP/NCI, 2004)
The list shows only some results of the screen, not a fair sample: it is rich in T/C values a quarter to a half above the control, in often repeated tests (any T/C) and in doses without a T/C. Other doses and runs of a compound stand elsewhere. T/C gives the treated animals as a percentage of the vehicle group. Some doses have a count of surviving animals in place of a T/C: the source holds a T/C of zero for them, seemingly a mark for toxic or unscored doses. Some survivor counts are full or nearly so, which does not show that the dose was tolerated: the source hardly ever lists a survival T/C far under the control, and the zero likely stands for such cases as well. Survivors were counted at the toxicity check, usually on the fifth day, unless a day is given; later deaths do not show. Schedules are NCI's codes, read here as Q, the interval in days (D) or hours (H), X, the number of doses. Some entries were tested several times; their values stand side by side, smallest first. For survival time, this PubChem deposit counts one and a half times the control or more as active, and values a quarter to a half above the control carry no call in these data; other NCI protocols may use other cut-offs. Some T/C values carry the count of animals alive at the toxicity check (mostly the fifth day); where none is given, no animal had died by that day.

Test system: P388 leukemia ip, CD2F1 mice, survival T/C
Experiment: NCI In Vivo Anticancer Drug Screen. Data for tumor model P388 Leukemia (intraperitoneal) in CD2F1 (CDF1) mice
Conditions: T/C endpoint: median survival time, higher T/C = longer survival
[1] = dose: 60.0 mg/kg/injection, schedule: Q01DX005 (ip), vehicle: saline
[2] = dose: 120.0 mg/kg/injection, schedule: Q01DX005 (ip), vehicle: saline
[3] = dose: 240.0 mg/kg/injection, schedule: Q01DX005 (ip), vehicle: saline
[4] = dose: 50.0 mg/kg/injection, schedule: Q01DX009 (ip), vehicle: saline
[5] = dose: 200.0 mg/kg/injection, schedule: Q01DX009 (ip), vehicle: saline
[6] = dose: 200.0 mg/kg/injection, schedule: Q01DX005 (ip), vehicle: saline
[7] = dose: 400.0 mg/kg/injection, schedule: Q04DX002 (ip), vehicle: saline with Tween-80
[8] = dose: 60.0 mg/kg/injection, schedule: Q01DX005 (ip), vehicle: saline with Tween-80
[9] = dose: 120.0 mg/kg/injection, schedule: Q01DX005 (ip), vehicle: saline with Tween-80
[10] = dose: 240.0 mg/kg/injection, schedule: Q01DX005 (ip), vehicle: saline with Tween-80
[11] = dose: 200.0 mg/kg/injection, schedule: Q04DX003 (ip), vehicle: saline with Tween-80
[12] = dose: 25.0 mg/kg/injection, schedule: Q01DX005 (ip), vehicle: saline

## Clc1ccccc1C(Nc1cnccn1)Nc1cnccn1
dose: 100.0 mg/kg/injection, schedule: Q01DX005 (ip), vehicle: saline with Tween-80
  T/C: 128 % of control
dose: 200.0 mg/kg/injection, schedule: Q01DX005 (ip), vehicle: saline with Tween-80
  T/C: 145 % of control

## Cn1cc(F)c(=O)n(C)c1=O
dose: 500.0 mg/kg/injection, schedule: Q04DX002 (ip), vehicle: saline
  survivor count: 4 of 6

## CN(C)CCCC[N+](C)(C)Cc1ccc(C[N+](C)(C)CCCC[N+](C)(C)Cc2ccc(CCl)cc2)cc1
dose: 25.0 mg/kg/injection, schedule: Q04DX003 (ip), vehicle: saline
  survivor count: 3 of 6
dose: 50.0 mg/kg/injection, schedule: Q04DX003 (ip), vehicle: saline
  survivor count: 0 of 6 and 3 of 6
dose: 100.0 mg/kg/injection, schedule: Q04DX003 (ip), vehicle: saline
  survivor count: 0 of 6
dose: 200.0 mg/kg/injection, schedule: Q04DX003 (ip), vehicle: saline
  survivor count: 0 of 6
dose: 400.0 mg/kg/injection, schedule: Q04DX003 (ip), vehicle: saline
  survivor count: 0 of 6

## C=C(CN(C)C)C(=O)c1ccccc1Cl
dose: 15.0 mg/kg/injection, schedule: Q01DX005 (ip), vehicle: saline
  survivor count: 0 of 6
dose: 30.0 mg/kg/injection, schedule: Q01DX005 (ip), vehicle: saline
  survivor count: 0 of 6
[1]
  survivor count: 0 of 6
[2]
  survivor count: 0 of 6
[3]
  survivor count: 0 of 6

## CCCC[P+](c1ccccc1)(c1ccccc1)c1ccccc1
dose: 20.0 mg/kg/injection, schedule: Q01DX009 (ip), vehicle: saline sonified
  T/C: 127 % of control

## Oc1[nH]c2ccccc2c1N=NC(=S)SCc1ccccc1
[4]
  survivor count: 6 of 6
dose: 100.0 mg/kg/injection, schedule: Q01DX009 (ip), vehicle: saline
  survivor count: 6 of 6
[5]
  survivor count: 6 of 6

## COc1cccc(NCCCSC)c1
[6]
  survivor count: 3 of 6

## [Cl][Pt+2][Cl].[NH-]C1CCCC2CCC[N-]C12 (stereo not given)
dose: 25.0 mg/kg/injection, schedule: Q01DX009 (ip), vehicle: saline with Tween-80
  T/C: 143 and 147 % of control
dose: 50.0 mg/kg/injection, schedule: Q01DX009 (ip), vehicle: saline with Tween-80
  T/C: 145 % of control

## Oc1cc(O)cc(/C=C/c2ccc(O)c(O)c2)c1
dose: 25.0 mg/kg/injection, schedule: Q01DX009 (ip), vehicle: DMSO
  T/C: 131 % of control
dose: 50.0 mg/kg/injection, schedule: Q01DX009 (ip), vehicle: DMSO
  T/C: 131 % of control [5 of 6 alive]

## C=Cc1ccccc1N/N=C(\Cl)C(=O)OCC
[7]
  survivor count: 2 of 6

## COc1ccc2c(c1)OC(C)(C)C(c1ccccc1)=C2c1ccc(O)cc1
[8]
  survivor count: 6 of 6
[9]
  survivor count: 6 of 6
[10]
  survivor count: 6 of 6

## CCCCCCC(O)C(CCCCCC)[Se]C (stereo not given)
[11]
  survivor count: 2 of 6
dose: 400.0 mg/kg/injection, schedule: Q04DX003 (ip), vehicle: saline with Tween-80
  survivor count: 0 of 6

## CC(=O)OC(C)(C)/C=C/C(=O)[C@](C)(O)[C@H]1[C@H](O)C[C@@]2(C)[C@@H]3CC=C4[C@@H](C=C(O)C(=O)C4(C)C)[C@]3(C)C(=O)C[C@]12C
dose: 0.5 mg/kg/injection, schedule: Q01DX009 (ip), vehicle: saline with Tween-80
  survivor count: 6 of 6

## Oc1ccc(Br)cc1C=NCCS
[8]
  survivor count: 6 of 6
[9]
  survivor count: 6 of 6

## CNC(=O)c1cccc2ccc[n+](C)c12
dose: 12.5 mg/kg/injection, schedule: Q04DX002 (ip), vehicle: saline
  survivor count: 0 of 6
dose: 25.0 mg/kg/injection, schedule: Q04DX002 (ip), vehicle: saline
  survivor count: 0 of 6
dose: 50.0 mg/kg/injection, schedule: Q04DX002 (ip), vehicle: saline
  survivor count: 0 of 6

## Nc1nnc(COc2ccc(Cl)cc2)n1N
[10]
  survivor count: 0 of 6

## O=C1NC(O)c2cccc(Br)c2O1 (stereo not given)
dose: 400.0 mg/kg/injection, schedule: Q01DX005 (ip), vehicle: saline with Tween-80
  survivor count: 0 of 5

## CC(=O)c1c(OCC(O)CN2CCCCC2)ccc2c(C)cc(=O)oc12 (stereo not given)
[7]
  survivor count: 0 of 6

## FC(F)(F)SN1COCN(SC(F)(F)F)C1
[1]
  survivor count: 6 of 6
[3]
  survivor count: 6 of 6

## COc1cc(C(=O)O)on1
[4]
  survivor count: 5 of 6
[5]
  survivor count: 5 of 6

## CCOP(=O)(OCC)Oc1cnn(C)c(=O)c1SCC
dose: 1.56 mg/kg/injection, schedule: Q01DX005 (ip), vehicle: saline
  survivor count: 0 of 5
dose: 3.13 mg/kg/injection, schedule: Q01DX005 (ip), vehicle: saline
  survivor count: 0 of 5
dose: 6.25 mg/kg/injection, schedule: Q01DX005 (ip), vehicle: saline
  survivor count: 0 of 6
dose: 12.5 mg/kg/injection, schedule: Q01DX005 (ip), vehicle: saline
  survivor count: 0 of 6
[12]
  survivor count: 0 of 6

## CC1=CC(=O)N2CCN=C2S1
dose: 400.0 mg/kg/injection, schedule: Q04DX003 (ip), vehicle: Klucel (hydroxypropylcellulose) (HPC)
  survivor count: 2 of 6

## CC(C)=CCC/C(C)=C/CC1=C(O)c2ccccc2C(=O)C1=O
dose: 3.12 mg/kg/injection, schedule: Q01DX009 (ip), vehicle: saline
  survivor count: 6 of 6
dose: 6.25 mg/kg/injection, schedule: Q01DX009 (ip), vehicle: saline
  survivor count: 6 of 6
dose: 25.0 mg/kg/injection, schedule: Q01DX009 (ip), vehicle: saline
  survivor count: 6 of 6

## COC(=O)C(=O)c1c(C(=O)OC)nc2[nH]n(-c3ccccc3)c(=O)c2c1-c1cccc2ccccc12
[8]
  survivor count: 6 of 6
[9]
  survivor count: 6 of 6
[10]
  survivor count: 3 of 6

## O=C(COC1CCCCC1)OC1CCCCC1
[11]
  survivor count: 4 of 6

## C=CCn1c(NC2=C(Cl)C(=O)c3ccccc3C2=O)cc(=O)[nH]c1=O
dose: 100.0 mg/kg/injection, schedule: Q01DX009 (ip), vehicle: Klucel (hydroxypropylcellulose) (HPC)
  survivor count: 4 of 6
dose: 200.0 mg/kg/injection, schedule: Q01DX009 (ip), vehicle: Klucel (hydroxypropylcellulose) (HPC)
  survivor count: 6 of 6

## CC(CN(C)C)C(=O)/C=C/c1ccc(F)cc1 (stereo not given)
[2]
  T/C: 127 and 129 % of control
[3]
  survivor count: 0 of 6

## COc1cc(NCCC2CCCCN2)c2ncccc2c1 (stereo not given)
[12]
  survivor count: 0 of 5
dose: 50.0 mg/kg/injection, schedule: Q01DX005 (ip), vehicle: saline
  survivor count: 0 of 5
dose: 100.0 mg/kg/injection, schedule: Q01DX005 (ip), vehicle: saline
  survivor count: 0 of 5
[6]
  survivor count: 0 of 5

## NCCCNCCCCNCCCN
dose: 100.0 mg/kg/injection, schedule: Q01DX001 (ip), vehicle: saline
  T/C: 128 % of control [5 of 6 alive]
dose: 200.0 mg/kg/injection, schedule: Q01DX001 (ip), vehicle: saline
  survivor count: 3 of 6
dose: 400.0 mg/kg/injection, schedule: Q01DX001 (ip), vehicle: saline
  survivor count: 0 of 6

## CC(NC(=O)OCc1ccccc1)C(=O)NC(C(N)=O)C(C)C (stereo not given)
dose: 50.0 mg/kg/injection, schedule: Q01DX005 (ip), vehicle: Klucel (hydroxypropylcellulose) (HPC)
  survivor count: 6 of 6
dose: 100.0 mg/kg/injection, schedule: Q01DX005 (ip), vehicle: Klucel (hydroxypropylcellulose) (HPC)
  survivor count: 6 of 6

## COCC1(COC)CCN(C2CC(O[C@H]3C[C@](O)(C(C)=O)Cc4c(O)c5c(c(O)c43)C(=O)c3c(OC)cccc3C5=O)OC(C)C2O)CC1 (stereo not given in full)
dose: 25.0 mg/kg/injection, schedule: Q04DX003 (ip), vehicle: water
  T/C: 148 % of control

## Nc1ccc(/C=C\c2nccc3ccccc23)cc1
dose: 6.25 mg/kg/injection, schedule: Q01DX009 (ip), vehicle: saline with Tween-80
  survivor count: 6 of 6
dose: 12.5 mg/kg/injection, schedule: Q01DX009 (ip), vehicle: saline with Tween-80
  survivor count: 6 of 6
